Data as given in patent US20160033528A1, “Methods for Selecting Peptides that Bind to Disease Specific Antibodies, Disease Specific Peptides and Uses Thereof” (The Regents of the University of California, priority 2014, published 2016).

Test system: anti-CSE antibodies (serum IgA)
Assay: Serum IgA reactivity to CSE peptide in CD and non-CD sera (n=231)
Assay type: binding, human
Procedure: Directed evolution pooled clone & individual patient single clone reactivity assays. To compare the reactivity of consensus epitopes from each generation, overnight cultures of individual clones within a consensus epitope family (4-5 clones/family) were diluted (1:50) in fresh media and grown until the OD600 was between 0.5 and 0.7. Cultures of each individual Clones were induced for 45 min, and 10^6 cells from each culture were pooled together. Pooled consensus epitope families were assayed for binding to case and control group sera (3 subjects/group) by flow cytometry. […] Cells expressing the eCPX scaffold without a peptide insert were used as a negative (background) control. To measure the reactivity of individual isolated mimotopes with individual patient sera, assays were similarly performed, except that a 1:100 or 1:200 serum dilutions were used for IgA and IgG isotype analysis, respectively. Non-parametric analysis tests including Wilcoxon signed rank test and Spearman's rank correlation coefficient were used to determine statistical significance and correlation values. Significance cutoff was defined as p<0.05.
To determine prevalence of anti-CSE antibodies in CD and control subjects, CD and non-CD sera (n=231) were assessed for reactivity to the CSE peptide: MDVRCRDSFVYQCHVGT (SEQ ID NO: 2). […] To determine if the serum antibody titer against the CSE epitope dissipated after the introduction of a gluten-free diet (GFD), sera from 11 CD cases obtained at time-of-diagnosis or after one year on a GFD were assayed.

How did the sensitivity turn out when MDVRCRDSFVYQCHVGT [CSE peptide] was run?
The sensitivity was 71%.

And the “sensitivity (reactive CD sera/total CD)” value?
The value was 65/92.

And the specificity?
The specificity was 99%.

And the “specificity (number/total non-CD as printed)” value?
The value was 2/139.
